# PubChem BioAssay (EPA / NIEHS)
# The chains behind the UniProt entries cited, without tags or fusion partners. Where a name states a change or a piece, a line headed by the entry shows the natural chain unless it says otherwise.
# UniProt P22734: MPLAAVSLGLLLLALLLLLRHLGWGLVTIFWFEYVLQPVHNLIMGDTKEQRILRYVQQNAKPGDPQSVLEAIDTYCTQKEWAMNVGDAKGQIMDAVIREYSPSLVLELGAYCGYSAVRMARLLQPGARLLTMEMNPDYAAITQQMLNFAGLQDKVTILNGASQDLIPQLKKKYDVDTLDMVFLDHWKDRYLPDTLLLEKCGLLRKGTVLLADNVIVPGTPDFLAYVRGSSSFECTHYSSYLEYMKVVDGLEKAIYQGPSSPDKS
# Inconclusive results, whose numbers are uncertain, are shown with a selection of clear calls. Potencies beside an inconclusive call are fits to weak or partial responses and may not hold up. Calls of active or inactive are those of the source. The calls were made as follows: active = hit-call score of the fitted dose curve at least 0.9, where 1 is the maximum; inconclusive = response in the unintended direction; inactive = score below 0.9.
# Target: rat Catechol-O-Methyl Transferase (COMT), Comt (gene 24267) (UniProt P22734)
# Test: NVS_ENZ_rCOMT: NovaScreen (NVS) Enzymatic Assay for rat Catechol-O-Methyl Transferase (COMT) (AID 2283235)
# Procedure: NVS_ENZ_rCOMT is a biochemical, single-readout assay that uses extracted gene-proteins from Rat dorsal striatum in a tissue-based cell-free assay. Measurements were taken 0 hour after chemical dosing in a 96-well plate.NVS_ENZ_rCOMT is one of one assay component(s) measured or calculated from the NVS_ENZ_rCOMT assay. It is designed to make measurements of enzyme activity, a form of enzyme reporter, as detected with absorbance signals by HPLC and Spectrophotometry technology.Data from the assay component NVS_ENZ_rCOMT was analyzed into 1 assay endpoint. This assay endpoint, NVS_ENZ_rCOMT, was analyzed in the positive analysis fitting direction relative to DMSO as the negative control and baseline of activity. Using a type of enzyme reporter, loss-of-signal activity can be used to understand changes in the enzymatic activity as they relate to the gene Comt. Furthermore, this assay endpoint can be referred to as a primary readout, because this assay has produced multiple assay endpoints where this one serves a enzymatic activity function. To generalize the intended target to other relatable targets, this assay endpoint is annotated to the methyltransferase intended target family, where the subfamily is o-methyltransferase.
# Binding assays used specific radioligands (tritiated, iodinated) with non-radioactive competitive displacement ligands in agonist or antagonist protocols (as indicated) and various reference compounds and inhibitors to titrate specific binding to receptors and transporters. Most enzyme assays (CYPs, kinases, phosphatases, proteases, HDACs) used recombinant protein and specific substrates (fluorescence mostly, some colorimetric and radioactive) and inhibitors, followed by a biochemical separation of substrate and product. All assays for the biochemical HTS were initially run in duplicate at a single concentration (10 uM for CYP450 assays and 25 uM for all others). Assay-chemical combinations meeting a pre-defined threshold (e.g., 30% inhibition and other criteria defined below) were then run in singleton concentration-response format with maximum concentration of 20 uM for CYPs and 50 uM for all others. Each assay was run with positive and negative controls, and concurrent controls on every plate. The follow-up (secondary) screen tested active chemical-pairs in concentration series, as well as a few additional assays not tested in the primary screen, some selected negative inactives, and several cases re-run in the concentration series for confirmatory purposes.
SMILES,AC50,outcome
CN(C)[C@@H]1C(=O)C(C(N)=O)=C(O)[C@@]2(O)C(=O)C3=C(O)c4c(O)cccc4[C@@](C)(O)[C@H]3C[C@@H]12,active: 2.73 µM,–
CCC(C)n1c(=O)[nH]c(C)c(Br)c1=O (stereo not given),inconclusive: 0.083 µM,–
CCOC(=O)CC(SP(=O)(OC)OC)C(=O)OCC (stereo not given),inconclusive: 25 µM,–
O=C(O)COc1ccc(Cl)cc1Cl,–,inactive
CCOC(=O)CC(SP(=S)(OC)OC)C(=O)OCC (stereo not given),–,inactive
COC(=O)N(OC)c1ccccc1COc1ccn(-c2ccc(Cl)cc2)n1,–,inactive
Nc1cnn(-c2ccccc2)c(=O)c1Cl,inconclusive: 0.23 µM,–
CCCN(CCC)c1c([N+](=O)[O-])cc(C(C)C)cc1[N+](=O)[O-],inconclusive: 0.0823 µM,–
O=P(O)(O)CCCl,–,inactive
Cc1ccccc1CO[C@@H]1C[C@@]2(C(C)C)CC[C@]1(C)O2,–,inactive

# Entries of single compounds, looked up by structure.
# CCOC(=O)CC(SP(=O)(OC)OC)C(=O)OCC (stereo not given) in the list: AC50: inconclusive: 25 µM
# Nc1cnn(-c2ccccc2)c(=O)c1Cl in the list: AC50: inconclusive: 0.23 µM
